Results: US20240398945A1
These are yes or no findings as the source states them, for the method shown. Some entries that bind do so weakly or less than the wild type.

Chains of the proteins cited; added tags and fusions are not shown. Residues count along the entry.
UniProt P15391, residues 20-556: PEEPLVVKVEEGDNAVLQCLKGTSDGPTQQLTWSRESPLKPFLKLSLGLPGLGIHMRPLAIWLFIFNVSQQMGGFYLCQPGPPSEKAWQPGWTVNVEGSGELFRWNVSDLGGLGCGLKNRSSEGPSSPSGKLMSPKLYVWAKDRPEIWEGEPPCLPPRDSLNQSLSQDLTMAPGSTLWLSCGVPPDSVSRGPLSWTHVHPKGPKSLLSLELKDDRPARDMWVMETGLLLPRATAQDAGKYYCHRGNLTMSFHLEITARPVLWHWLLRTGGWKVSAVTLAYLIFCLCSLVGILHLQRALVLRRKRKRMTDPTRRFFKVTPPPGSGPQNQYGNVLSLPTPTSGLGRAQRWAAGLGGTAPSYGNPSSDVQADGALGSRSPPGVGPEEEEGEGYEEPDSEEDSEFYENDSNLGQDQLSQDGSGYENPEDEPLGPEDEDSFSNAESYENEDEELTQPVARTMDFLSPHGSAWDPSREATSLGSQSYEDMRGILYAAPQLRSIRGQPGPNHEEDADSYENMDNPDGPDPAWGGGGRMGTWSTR

Tests used:
[1] = molecular target: human CD19 protein (human) (UniProt P15391); experiment: reactivity with B-cell lines
[2] = molecular target: human CD19 protein (human) (UniProt P15391); experiment: immunoprecipitation from Daudi cells
[3] = molecular target: human CD19 protein (human) (UniProt P15391); experiment: reactivity with hCD19-transfected 300.19 cells

Measured: binding

B1: murine anti-CD19 monoclonal antibody of the invention (antibody, V domains shown)
VH: QIQLQQSGAELVRPGSSVKISCKASGFAFSSYWMNWVKQRPGQGLEWIGQIYPGDGDTKYNVKFRGKATLTADESSSTAYIQLTSLTSEDSGVYFCARKRITAVITTVFDVWGAGTTVTVSS
VL: NIVLTQSPASLAVSLGQRATISCRASESVDNFGNSFMHWYQQKSGQPPRLLIYIASNLESGVPARFSGSGSRTDFTLTIDPVEADDAATYYCHQNNEDPLTFGAGTKLELK
binds: all assays above
